Literature values, collected in patent US12070454B1, “Anesthetic nerve block and method” (PFOF LLC, priority 2022, dated 2024).
Some results were stated once for a whole list of compounds, not compound by compound.

Test system: peripheral nerve
Conditions: cited from earlier work; for duration of peripheral nerve block, local anesthetic alone: no adjuvant or steroid; for duration of peripheral nerve block including dexamethasone: with dexamethasone

SMILES | duration of peripheral nerve block, local anesthetic alone | duration of peripheral nerve block including dexamethasone
CCCCN1CCCCC1C(=O)Nc1c(C)cccc1C (racemic) [bupivacaine, (RS)-1-butyl-N-(2,6-dimethylphenyl)piperidine-2-carboxamide] | 12 to 16 h | 16 to 24 h
CCCN1CCCC[C@H]1C(=O)Nc1c(C)cccc1C [ropivacaine, (S)-1-propyl-N-(2,6-dimethylphenyl)piperidine-2-carboxamide] | 12 to 16 h | 16 to 24 h
